Hit rate of the full screen: of about 400,000 compounds, about 13,000 (3.2%) were called active. The shares of active, inactive and inconclusive entries below differ from those in the screen. Calls follow the shape of the dose curve; as a rule, active = well fitted cell-killing curve with a large enough effect; inconclusive = small, poorly fitted or top-dose-only effect, or effect the other way; inactive = flat fitted curve, though single readings scatter. Where the call is inconclusive, the potency comes from a doubtful curve fit.
Assay: qHTS assay for MDR1-selective chemotherapeutics: Primary screen using the drug-selected MDR subline cells KB-V1; also: nearly all actives have a fitted effect of over 60% in size
Conditions: KB-V1 MDR cells viability, CellTiter-Glo, 72 h; series mostly up to 46.1 µM
How it was run: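 Luminescent ATP read-out (CellTiter-Glo, 10 min) measures survival of drug-selected KB-V1 MDR cells after 72 h, 37 degrees C compound exposure. Medium: phenol-red-free DMEM, 10% FBS. Values from fitted concentration-response curves.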
Potency is read from the fitted curve at half-maximal effect.

Row | SMILES | Potency
1 | Cc1cccc(NC(=O)c2cc(-c3ccc(C)s3)nc3ccccc23)n1 | inconclusive: 29.1 µM [cytotoxic, single point]
2 | COc1ccc(CN=C(C)c2c(C(F)(F)F)[nH]n(-c3nc4ccccc4s3)c2=O)cc1 | inconclusive: 1.3 µM [cytotoxic, full curve, poor fit]
3 | CC(C)(C)c1ccc(OCC(=O)O/N=C(\N)c2ccncc2)cc1 | inconclusive: 18.4 µM [cytotoxic, single point]
4 | Cc1ccc(-c2nc3cccnc3s2)cc1NS(=O)(=O)c1ccc2c(c1)OCCO2 | inconclusive: 23.1 µM [cytotoxic, single point]
5 | COc1ccc(C(=O)NCc2nnc(SCC(=O)Nc3ccccc3)n2-c2ccccc2)cc1 | inconclusive: 16.4 µM [rising, single point]
6 | O=C(NCc1ccco1)c1cc(NS(=O)(=O)c2cccc([N+](=O)[O-])c2)ccc1O | inconclusive: 32.6 µM [cytotoxic, partial curve, poor fit]
7 | C/C=C(\C)CN1CCC(n2nccc2NC(=O)CCc2ccccc2)CC1 | inactive
8 | CCOC(=O)c1cnn(-c2nc(SC)nc3sc4c(c23)CCCC4)c1N | inconclusive: 29.1 µM [cytotoxic, single point]
9 | CCCC(=O)n1nc(-c2ccco2)nc1NCc1ccccc1Cl | inconclusive: 25.9 µM [rising, single point]
10 | Cc1ccnc(NC(=O)C2CC(=O)N(c3ccc4c(c3)OCCO4)C2)c1 (stereo unspecified) | inactive
11 | c1ccc2c(c1)nnn2Cc1nnc2sc(-c3ccncc3)nn12 | inactive
12 | CC(C)C[C@H](NC(=O)c1nc[nH]c1C(=O)NCCCCCNC(=O)OC(C)(C)C)C(=O)OC(C)(C)C | inconclusive: 20.6 µM [cytotoxic, single point]
13 | O=C(Nc1ccc(N2CCN(C(=O)c3cccs3)CC2)c(Cl)c1)c1cccnc1 | inactive
14 | CCC(=O)N1CCc2cc(S(=O)(=O)NC(C(=O)NC(C)c3ccccc3)C(C)C)ccc21 (stereo unspecified) | inconclusive: 18.4 µM [cytotoxic, partial curve, poor fit]
15 | Cc1[nH]n(-c2ncc(-c3ccccc3)s2)c(=O)c1C(c1ccc(Cl)cc1)C(C#N)C#N (stereo unspecified) | inconclusive: 18.4 µM [cytotoxic, single point]
16 | N=C(N)SCc1nc2ccccc2c(=O)n1-c1ccccc1Cl | active: 23.1 µM
17 | COc1ccc(OC)c(CCNC(=O)c2cc3c(=O)oc4ccc(C)cc4c3s2)c1 | inactive
18 | CC(=O)Nc1ccc(NC(=O)C2CCCN2S(=O)(=O)c2ccc3c(c2)CCCC(=O)N3)cc1 (stereo unspecified) | inconclusive: 23.1 µM [rising, single point]
19 | Cc1cccc(NC(=O)CO/N=C/c2ccc3c(c2)OCO3)c1 | inconclusive: 32.6 µM [cytotoxic, partial curve, poor fit]
20 | COc1ccc(-n2cnnc2SCC(=O)Nc2cccc(S(=O)(=O)N3CCCCC3)c2)cc1 | active: 14.6 µM
21 | O=C(NC1CCCCCC1)C1CCN(C(=O)c2ccc(Br)cc2)CC1 | inactive
22 | Cc1cc(=O)oc2cc(OCC(=O)N3c4ccccc4CC3C)ccc12 (stereo unspecified) | active: 2.59 µM
23 | Cc1[nH]n(-c2ccccc2)c(=S)c1C=Nc1cccc([N+](=O)[O-])c1 | inactive

Entries from the list above containing two or more sulfur atoms:
Row | SMILES | Potency
4 | Cc1ccc(-c2nc3cccnc3s2)cc1NS(=O)(=O)c1ccc2c(c1)OCCO2 | inconclusive: 23.1 µM [cytotoxic, single point]
8 | CCOC(=O)c1cnn(-c2nc(SC)nc3sc4c(c23)CCCC4)c1N | inconclusive: 29.1 µM [cytotoxic, single point]
20 | COc1ccc(-n2cnnc2SCC(=O)Nc2cccc(S(=O)(=O)N3CCCCC3)c2)cc1 | active: 14.6 µM

Continued:

Row | SMILES | Potency
24 | COc1ccc(N2C[C@H](CSC)[C@@H](CC(=O)Nc3ccccc3)C2=O)cc1 | inactive
25 | CCNc1nc(C#N)nc(Nc2ccccc2)n1 | inactive
26 | C=CCNC(=O)c1onc(CCl)c1C(=O)OC | inconclusive: 18.4 µM [cytotoxic, single point]
27 | COc1ccc(OC)c(S(=O)(=O)N/N=C\c2ccc3c(c2)OCO3)c1 | inactive
28 | COc1cccc(-n2cc(-c3ccc(F)cc3)[nH]c2=S)c1 | inconclusive: 4.11 µM [rising, full curve, poor fit]
29 | Cn1c(Cc2cccs2)nnc1SCC(=O)Nc1ccc(C(N)=O)cc1 | inactive
30 | C[C@H](O)[C@@H]1C(=O)N2CCc3c([nH]c4ccccc34)[C@@H]2C[C@@H]1N(C)S(=O)(=O)c1ccccc1 | inactive
31 | Cc1c(C=O)c2ccccn2c1C(=O)c1ccc(Cl)c([N+](=O)[O-])c1 | inactive
32 | O=C(Nc1ccc2nc(SCc3ccccc3)sc2c1)c1ccccc1F | inconclusive: 20.6 µM [cytotoxic, single point]
33 | CCN1C(=O)[C@H]2[C@@H](c3ccc(-c4ccc(C(C)=O)cc4)c(OC)c3)N3CCCC[C@@]3(C(=O)OC)[C@H]2C1=O | inactive
34 | Cc1ccc(N2C(=O)CN(Cc3sccc3C)C2=S)cc1C | active: 16.4 µM
35 | COc1ccc(C(=O)NCCCNC(=O)c2cnccn2)cc1Br | inactive
36 | CC(C)CCC(CCNCc1ccccn1)c1ccc(Cl)cc1 (stereo unspecified) | active: 10.3 µM
37 | CCOC(=O)C1=C(CS(=O)(=O)c2ccc(F)cc2)NC(=O)NC1c1ccc(O)c(O)c1 (stereo unspecified) | inactive
38 | CC1(C)CC(NC(=O)C2CCN(S(=O)(=O)c3cccc(C(F)(F)F)c3)CC2)CC(C)(C)N1 | inactive
39 | COc1cccc(CC2(CO)CCCN(Cc3cc(F)ccc3-n3cccn3)C2)c1 (stereo unspecified) | inconclusive: 20.6 µM [cytotoxic, single point]
40 | CCC(C)(C(=O)NC1CCCCC1)N(C(=O)Cc1cccs1)c1ccccc1 (stereo unspecified) | inconclusive: 18.4 µM [cytotoxic, single point]
41 | COc1ccccc1NS(=O)(=O)c1cc(NC(=O)COc2ccccc2F)ccc1N1CCOCC1 | active: 4.61 µM
42 | Cc1cc(NC(=O)C(C)SCC(=O)OC(C)C(=O)Nc2cccc(C#N)c2)no1 (stereo unspecified) | inconclusive: 3.26 µM [rising, partial curve, poor fit]
43 | O=C(CSc1ccc(Br)cc1)N1CCN(S(=O)(=O)c2ccccc2)CC1 | inconclusive: 20.6 µM [cytotoxic, single point]
44 | COc1cccc(-c2cc(C(F)(F)F)nc(N3CCN(c4ccccc4)CC3)n2)c1 | active: 16.4 µM
45 | COc1ccc(C)cc1N(C(=O)c1snc(C(N)=O)c1N)C(C(=O)NC1CCCCC1)c1ccc(C)o1 (stereo unspecified) | active: 20.6 µM
46 | Cc1cc(C(=O)Nc2ccc(C(C)C)cc2)c2c(C)nn(-c3ccccc3)c2n1 | inconclusive: 13 µM [cytotoxic, partial curve]
